Data as given in PubChem BioAssay AID493246 (Drosophila RNAi Screening Center, 2011)

Screen: 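Genome-wide search for dsRNAs that reduce cell number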 (primary screen)
Cell system: Drosophila Kc and S2R+ cells
Knock-down reagent: long dsRNA against Drosophila genes
Measured: 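Cell number per well after knock-down, printed as raw plate values; calls were based on per-plate z-scores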
Scale: Kc cell number and S2R+ cell number: higher = more cells remaining
Call rule: 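Active when the per-plate z-score of cell number is 3 or more in the direction of fewer cells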
The deposit covers about 21,000 reagents; shown is a random part of those that have a named target and a result. Over the whole deposit, 429 (2%) got an active call. 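Values are raw and not normalised between plates; calls rest on per-plate z-scores that were not deposited.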 Names joined by + are all predicted targets of the reagent. No sequences are given here. Not stated in the record: the amount of reagent, the time to read-out.

gene knocked down	DRSC id	Kc cell number, rep 1	Kc cell number, rep 2	S2R+ cell number, rep 1	S2R+ cell number, rep 2	activity call
spag	DRSC04717	1.52e6	1.62e6	1.34e6	1.31e6	inactive
CG34038	DRSC04039	1.42e6	1.45e6	9.62e5	1.04e6	inactive
Nelf-A	DRSC15903	1.64e6	1.68e6	1.25e6	1.34e6	inactive
Samtor	DRSC04390	1.44e6	1.51e6	1.19e6	1.33e6	inactive
IFT43	DRSC02892	1.39e6	1.51e6	1.26e6	1.23e6	inactive
CG33127	DRSC00011	1.68e6	1.69e6	1.04e6	1.22e6	inactive
CG13313	DRSC09984	1.74e6	1.56e6	1.35e6	1.31e6	inactive
Mad	DRSC00759	1.55e6	1.51e6	1.13e6	1.31e6	inactive
CG12991	DRSC19511	1.49e6	1.48e6	1.02e6	1.14e6	inactive
sau	DRSC00694	1.11e6	1.35e6	3.36e5	3.87e5	inactive
CG10097 + CG10096	DRSC14189	1.33e6	1.52e6	1.17e6	1.31e6	inactive
CG10097 + CG10096	DRSC14190	1.35e6	1.34e6	1.24e6	1.31e6	inactive
CG30075	DRSC05484	1.55e6	1.46e6	1.05e6	1.27e6	inactive
CG42579	DRSC20391	1.40e6	1.62e6	1.13e6	1.16e6	inactive
Sym	DRSC12301	1.53e6	1.65e6	1.20e6	1.30e6	inactive
Cpr65Az	DRSC09882	1.62e6	1.58e6	1.34e6	1.25e6	inactive
RecQ5	DRSC11266	1.55e6	1.64e6	1.21e6	1.22e6	inactive
GEFmeso	DRSC06748	1.40e6	1.45e6	1.28e6	1.34e6	inactive
GEFmeso	DRSC06940	1.55e6	1.57e6	1.14e6	1.27e6	inactive
PQBP1	DRSC14393	1.15e6	1.59e6	1.17e6	1.25e6	inactive
Cpn	DRSC16613	1.69e6	1.75e6	1.40e6	1.48e6	inactive
CG3356	DRSC04358	1.34e6	1.44e6	1.23e6	1.21e6	inactive

3 entries from above, showing only “S2R+ cell number, rep 1”:
CG42579 [DRSC20391]: 1.13e6
Sym [DRSC12301]: 1.20e6
Cpr65Az [DRSC09882]: 1.34e6

Next results follow:
gene knocked down	DRSC id	Kc cell number, rep 1	Kc cell number, rep 2	S2R+ cell number, rep 1	S2R+ cell number, rep 2	activity call
Cpr30F	DRSC02908	1.57e6	1.64e6	1.17e6	1.23e6	inactive
CG13423	DRSC06386	1.60e6	1.66e6	1.31e6	1.47e6	inactive
CG42233	DRSC14328	1.56e6	1.49e6	9.56e5	1.11e6	inactive
CG42233	DRSC15416	1.49e6	1.47e6	1.01e6	1.08e6	inactive
bru3	DRSC09280	1.38e6	1.44e6	9.73e5	1.17e6	inactive
bru3	DRSC09687	1.65e6	1.73e6	1.28e6	1.26e6	inactive
bru3	DRSC09887	1.30e6	1.28e6	1.35e6	1.49e6	inactive
Su(z)2	DRSC07558	6.44e5	1.06e6	5.75e5	6.72e5	active
Cdk9	DRSC04601	1.36e6	1.43e6	1.18e6	1.26e6	inactive
cyst	DRSC02023	1.26e6	1.41e6	1.36e6	1.44e6	inactive
GstE1	DRSC07437	1.63e6	1.70e6	1.29e6	1.46e6	inactive
CG34006 (retired record)	DRSC13817	1.09e6	1.66e6	1.08e6	1.14e6	inactive
pst	DRSC11003	1.52e6	1.57e6	1.36e6	1.30e6	inactive
Uros2	DRSC16505	1.48e6	1.47e6	1.03e6	1.17e6	inactive
CG16820	DRSC02522	1.40e6	1.44e6	1.23e6	1.37e6	inactive
Lamtor3	DRSC02815	1.75e6	1.84e6	1.25e6	1.40e6	inactive
CG17746	DRSC08521	1.35e6	1.37e6	1.25e6	1.16e6	inactive
CG4766	DRSC17736	1.67e6	1.63e6	1.08e6	1.20e6	inactive
CG14644	DRSC12230	1.33e6	1.58e6	1.23e6	1.33e6	inactive
CAH9	DRSC15963	1.79e6	1.86e6	1.12e6	1.23e6	inactive
Npc2h	DRSC14297	1.54e6	1.58e6	1.03e6	1.18e6	inactive
CG32277	DRSC08196	1.55e6	1.23e6	9.75e5	1.29e6	inactive
natalisin	DRSC14966	1.31e6	1.36e6	9.85e5	1.01e6	inactive
natalisin	DRSC14967	1.59e6	1.61e6	1.19e6	1.31e6	inactive
Pka-C3	DRSC09402	1.48e6	1.61e6	1.16e6	1.32e6	inactive
Pka-C3	DRSC11254	1.52e6	1.89e6	1.10e6	1.25e6	inactive
CG14624	DRSC18634	1.44e6	1.49e6	1.05e6	1.16e6	inactive
S6kII	DRSC20645	1.51e6	1.52e6	1.07e6	1.22e6	inactive
RabX6	DRSC08223	1.32e6	9.21e5	1.32e6	1.29e6	inactive
CG5079	DRSC15713	1.26e6	1.37e6	6.50e5	7.35e5	active
CG14355	DRSC14818	1.77e6	1.87e6	1.45e6	1.46e6	inactive
spn-B	DRSC17063	1.34e6	1.37e6	1.10e6	1.25e6	inactive
Or94a	DRSC16772	1.49e6	1.46e6	9.63e5	1.03e6	inactive
nanos	DRSC17018	1.41e6	1.40e6	1.01e6	1.09e6	inactive
Ric	DRSC07532	1.65e6	1.66e6	1.34e6	1.57e6	inactive
CG13051	DRSC09932	1.41e6	1.55e6	1.39e6	1.49e6	inactive
CG15711	DRSC06582	1.54e6	1.62e6	1.22e6	1.42e6	inactive
